The inconclusive results got no clear call from the source; some entries with a clear call stand among them for comparison. For some of these results: Potencies of inconclusive entries are doubtful fits and often do not repeat. The source made the active and inactive calls. Unless noted, calls come from the whole dose curve.
Key:
[1] = molecular target: 5-hydroxytryptamine receptor 2A (Homo sapiens) (UniProt P28223); assay: 5-hydroxytryptamine receptor 2A (HTR2A) small molecule antagonists, cell-based qHTS assay (AID 1963586); note: potency is the fitted concentration of half-maximal effect; nearly all actives have a fitted effect of over 45% in size
Summary of the method: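 Antagonist-mode intracellular calcium assay: DOI (4 nM) added after 5 min compound pre-incubation at room temperature to dye-loaded HTR2A-CHO cells. Fluorescence followed for 3 min, sampled every second.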

Sequences of proteins named here, by UniProt entry; tags and fusion partners are left off. A change or cut given only in a name is not applied to a line headed by its entry.
UniProt P28223, whole entry, looked up: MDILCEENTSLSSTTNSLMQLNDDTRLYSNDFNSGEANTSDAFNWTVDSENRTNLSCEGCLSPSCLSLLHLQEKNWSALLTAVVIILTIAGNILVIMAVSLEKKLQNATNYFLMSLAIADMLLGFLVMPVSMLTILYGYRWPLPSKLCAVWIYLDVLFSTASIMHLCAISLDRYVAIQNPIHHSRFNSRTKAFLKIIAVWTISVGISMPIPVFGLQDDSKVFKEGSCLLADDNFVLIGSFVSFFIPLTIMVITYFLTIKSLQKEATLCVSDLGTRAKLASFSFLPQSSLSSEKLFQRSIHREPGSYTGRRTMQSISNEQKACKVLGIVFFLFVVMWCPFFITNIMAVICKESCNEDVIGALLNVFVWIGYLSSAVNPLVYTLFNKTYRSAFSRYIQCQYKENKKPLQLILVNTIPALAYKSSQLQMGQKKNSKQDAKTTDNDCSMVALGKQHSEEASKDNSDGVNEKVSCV
UniProt P11229: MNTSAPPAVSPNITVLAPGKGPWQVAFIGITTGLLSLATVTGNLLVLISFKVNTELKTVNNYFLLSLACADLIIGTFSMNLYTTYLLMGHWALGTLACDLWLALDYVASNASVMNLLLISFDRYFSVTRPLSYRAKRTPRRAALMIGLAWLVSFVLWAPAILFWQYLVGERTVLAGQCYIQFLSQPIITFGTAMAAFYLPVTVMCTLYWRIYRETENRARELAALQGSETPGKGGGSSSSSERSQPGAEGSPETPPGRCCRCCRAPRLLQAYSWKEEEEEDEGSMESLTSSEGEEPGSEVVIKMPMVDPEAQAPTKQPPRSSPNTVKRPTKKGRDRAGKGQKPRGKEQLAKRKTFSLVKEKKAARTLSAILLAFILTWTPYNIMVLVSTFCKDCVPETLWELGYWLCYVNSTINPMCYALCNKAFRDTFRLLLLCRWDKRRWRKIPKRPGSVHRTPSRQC
UniProt P14416, whole entry, looked up: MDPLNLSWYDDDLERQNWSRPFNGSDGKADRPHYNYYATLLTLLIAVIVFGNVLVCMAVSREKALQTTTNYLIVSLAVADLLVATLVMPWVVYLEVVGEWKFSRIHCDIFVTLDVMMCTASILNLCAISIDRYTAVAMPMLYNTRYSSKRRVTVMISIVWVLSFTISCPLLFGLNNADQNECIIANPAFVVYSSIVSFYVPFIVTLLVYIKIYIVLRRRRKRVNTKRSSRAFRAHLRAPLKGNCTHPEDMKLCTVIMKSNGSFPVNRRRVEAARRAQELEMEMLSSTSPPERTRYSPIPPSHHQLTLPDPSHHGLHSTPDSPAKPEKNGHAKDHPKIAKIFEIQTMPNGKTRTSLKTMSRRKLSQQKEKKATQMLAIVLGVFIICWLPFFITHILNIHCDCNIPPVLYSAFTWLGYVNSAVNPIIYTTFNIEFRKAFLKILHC

[2] = molecular target: 5-hydroxytryptamine receptor 2A (Homo sapiens) (UniProt P28223); assay: 5-hydroxytryptamine receptor 2A (HTR2A) small molecule agonists, cell-based qHTS assay (AID 1963587); note: potency is the fitted concentration of half-maximal effect; nearly all actives have a fitted effect of over 30% in size
Summary of the method: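 Kinetic calcium-flux fluorescence (2 min, 1 sec intervals) after compound addition in agonist mode. HTR2A-CHO cells were cultured 18 h, then dye-loaded 1 h at 37 C.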

[3] = molecular target: Muscarinic acetylcholine receptor M1 (Homo sapiens) (UniProt P11229); assay: Cholinergic receptor muscarinic 1 (CHRM1) small molecule agonists, cell-based qHTS assay (AID 1963589); note: % is set by controls: 0 for no effect and ±100 for the full control effect; nearly all actives have a fitted effect of over 35% in size
Summary of the method: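 Human M1 in stable CHO line; 18 h plating, 1 h dye load 37 C; cpd added (agonist mode); Ca2+ fluorescence kinetic read, 1 s intervals; 15 conc, 3 runs.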

[4] = cAMP Responsive Elements (CRE) small molecule antagonists, cell-based qHTS assay (AID 1963591; active = well fitted inhibition curve with a large enough effect in the signal ratio in the repeat runs, not every such curve was filed as active; inconclusive = weak or mixed curves, or effect the other way; the % refers to the signal ratio; note: potency is the fitted concentration of half-maximal effect; for activity change, negative = inhibition: % is set by controls: 0 for no effect and ±100 for the full control effect); conditions: CRE-bla HEK293T, beta-lactamase FRET ratio; activity change, negative = inhibition: at 92.4 µM (top of the series) unless noted
Summary of the method: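 Beta-lactamase reporter read by FRET substrate (LiveBLAzer B/G) after 2 h at room temperature. CRE-bla HEK293T cells had received compound plus 0.25 uM (final) NKH477 for 3 h at 37 °C.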

[5] = molecular target: Beta-2 adrenergic receptor (Homo sapiens) (UniProt P07550); assay: Adrenergic beta2 receptor (ADRB2) small molecule agonists, cell-based qHTS assay (AID 1963593); conditions: CHO-ADRB2 cells, cAMP HTRF, 30 min; activation: at 92.4 µM (top of the series) unless noted;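 note: CHO cells stably overexpressing human ADRB2; % is set by controls: 0 for no effect and ±100 for the full control effect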
Summary of the method: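 CHO cells stably over-expressing ADRB2 were plated overnight at 37C, then dosed with compounds plus a stimulation mix containing 100uM IBMX and 25uM Ro-20-1724 for 0.5hr at room temperature. cAMP was measured by HTRF competition, 1hr.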

[6] = molecular target: D(2) dopamine receptor (Homo sapiens) (UniProt P14416); assay: Dopamine D2 receptor (DRD2) small molecule agonists, cell-based qHTS assay (AID 1963594); conditions: HEK293-DRD2 cAMP HTRF, agonist mode, 30 min; activation: at 92.4 µM (top of the series) unless noted; note: potency is the fitted concentration of half-maximal effect; nearly all actives have a fitted effect of over 35% in size
Summary of the method: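 cAMP accumulation in DRD2-HEK293 cells measured by HTRF after 1 h detection; compounds added 10 min before NKH477 (200nM […]) forskolin-analogue stimulation, 30 min at room temperature, with Ro20-1724 present at 0.1 mM final.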

[7] = cAMP Responsive Elements (CRE) small molecule agonists, cell-based qHTS assay (AID 1963590); conditions: CRE-bla HEK293T, beta-lactamase FRET ratio, 3 h; activation: at 92.4 µM (top of the series) unless noted; note: potency is the fitted concentration of half-maximal effect
Summary of the method: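 HEK 293T CRE-bla, 2,000 cells/well, 18 h preincubation 37 C/5% CO2; cpds (DMSO) pinned, 3 h; LiveBLAzer B/G FRET substrate, 2 h RT.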

[8] = molecular target: Beta-2 adrenergic receptor (Homo sapiens) (UniProt P07550); assay: Adrenergic beta2 receptor (ADRB2) small molecule antagonists, cell-based qHTS assay (AID 1963592); conditions: CHO-ADRB2 cells, isoproterenol-stimulated cAMP HTRF ratio, 0.5 h; activity change, negative = inhibition: at 92.4 µM (top of the series) unless noted; note: % is set by controls: 0 for no effect and ±100 for the full control effect; nearly all actives have a fitted effect of over 50% in size
Summary of the method: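 Cells (CHO, stable ADRB2 overexpression) incubated 18-20hr at 37C; compounds added from DMSO; agonist mix (1nM isoproterenol, 100uM IBMX, 25uM Ro-20-1724) added; 0.5hr RT; d2-cAMP and anti-cAMP-cryptate added; 1hr RT; 665/615 nm read.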

[9] = molecular target: Muscarinic acetylcholine receptor M1 (Homo sapiens) (UniProt P11229); assay: Cholinergic receptor muscarinic 1 (CHRM1) small molecule antagonists, cell-based qHTS assay (AID 1963588); note: potency is the fitted concentration of half-maximal effect; nearly all actives have a fitted effect of over 40% in size
Summary of the method: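 CHRM1-CHO calcium-flux assay, antagonist mode. Cells were seeded 18 h, dye-loaded 1 h at 37 C and given compound for 5 min at RT, then acetylcholine was added at 50nM. FDSS fluorescence was read 3 min; 15 concentrations, three runs.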

[10] = molecular target: D(2) dopamine receptor (Homo sapiens) (UniProt P14416); assay: Dopamine D2 receptor (DRD2) small molecule antagonists, cell-based qHTS assay (AID 1963595; active = well fitted inhibition curve with a large enough effect in the signal ratio in the repeat runs, with a control signal flat; inconclusive = weak or mixed curves, or effect the other way; the % refers to the signal ratio; note: % is set by controls: 0 for no effect and ±100 for the full control effect); conditions: HEK293-DRD2 cAMP HTRF antagonist mode; activity change, negative = inhibition: at 92.4 µM (top of the series) unless noted
Summary of the method: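 Stable D2 receptor HEK293 line, 24 h after seeding. Compound preincubated 10 min, then quinpirole (12 nM) with forskolin analogue NKH477 (200 nM), 30 min, room temperature. Detection by time-resolved FRET of cAMP.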

For `CCCCCCOc1ccc(N)cc1`, the Potency [1] was inconclusive: 47.2 µM [inhibitor, single point], the Potency [2] was inconclusive: 54.9 µM [activator, single point] and the Potency [3] was “inactive”.

In the case of `O=C1NC(=O)[C@@]2(CCOc3ccc(F)cc32)N1`, the Potency [1] is reported as active: 0.818 µM, the Potency [2] is reported as active: 3.01 µM and the Potency [4] is reported as “inactive”. The activation [5] was inconclusive: 32.3% [at 42.5 µM] and the Potency [6] was active: 0.11 µM.

In the case of `O=C(CCOCCOCCOCCOCCC(=O)Nc1c(I)cc(I)c(C(=O)O)c1I)Nc1c(I)cc(I)c(C(=O)O)c1I`, the Potency [1] is reported as inconclusive: 0.41 µM [inhibitor, partial curve, poor fit].

For `Cn1c(NCCN(CCO)CCCc2ccc([N+](=O)[O-])cc2)cc(=O)n(C)c1=O`, the Potency [1] was inconclusive: 20.5 µM [inhibitor, partial curve, poor fit], the Potency [2] was inconclusive: 19 µM [activator, partial curve] and the Potency [4] was “inactive”. For the same compound, the Potency [5] was “inactive”.

In the case of `CCCCCCCCCCOCC(O)CN` (stereo not given), the Potency [1] is reported as active: 18.3 µM, the Potency [7] is reported as inconclusive: 33.5 µM [rising, single point] and the Potency [4] is reported as inconclusive: 33.5 µM. For the same compound, the activity change, negative = inhibition [8] was inconclusive: -15.6% [at 42.5 µM] and the Potency [5] was “inactive”.

For `[O-][n+]1cccc(/C(Cl)=N/OC[C@@H](O)CN2CCCCC2)c1`, the Potency [1] was inconclusive: 0.103 µM [inhibitor, partial curve, poor fit], the Potency [9] was inconclusive: 0.0005 µM [inhibitor] and the activation [5] was inconclusive: -22% [at 42.5 µM].

For `CCN(O)CC`, the Potency [1] was inconclusive: 7.32 µM [inhibitor, partial curve, poor fit], the Potency [2] was inconclusive: 53.7 µM [activator, single point] and the Potency [5] was “inactive”. The activity change, negative = inhibition [10] was inconclusive: 5.82%.

From PubChem BioAssay (Tox21)
